Patent US20150104459A1
Results are given in words; binding and its absence hold for the method and conditions named. Some results given as binding are weak or reduced against the parent protein; the word gives no strength.

Amino acid sequences for entries named in this document (tags omitted).
UniProt P06821: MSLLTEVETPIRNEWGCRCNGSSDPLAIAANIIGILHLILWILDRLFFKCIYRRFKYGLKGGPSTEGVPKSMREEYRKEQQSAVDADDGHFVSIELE

Target: M2 protein of A/Puerto Rico/8/34 (H1N1) on virus particles (influenza A virus A/Puerto Rico/8/34 (H1N1)) (UniProt P06821)
Assay: surface plasmon resonance on influenza virus; numbers stand in Table 4

B1: TCN-032 Fab fragment (Fab, V domains shown)
VH: QVQLQESGPGLVKPSETLSLTCTVSGSSISNYYWSWIRQSPGKGLEWIGFIYYGGNTKYNPSLKSRVTISQDTSKSQVSLTMSSVTAAESAVYFCARASCSGGYCILDYWGQGTLVTVS
VL: DIQMTQSPSSLSASVGDRVTITCRASQNIYKYLNWYQQRPGKAPKGLISAASGLQSGVPSRFSGSGSGTDFTLTITSLQPEDFATYYCQQSYSPPLTFGGGTRVEIK
Which binding does the source give for B1 here?
Its binding is “binds”.
